Test results published in paper PMC7819943, “Rice protein-binding microarrays: a tool to detect cis-acting elements near promoter regions in rice”.
This is one part of the list.

Protein sequences, listed by entry. Tags and fused reporters are not part of them.
UniProt Q0JBA9, entry or part of it: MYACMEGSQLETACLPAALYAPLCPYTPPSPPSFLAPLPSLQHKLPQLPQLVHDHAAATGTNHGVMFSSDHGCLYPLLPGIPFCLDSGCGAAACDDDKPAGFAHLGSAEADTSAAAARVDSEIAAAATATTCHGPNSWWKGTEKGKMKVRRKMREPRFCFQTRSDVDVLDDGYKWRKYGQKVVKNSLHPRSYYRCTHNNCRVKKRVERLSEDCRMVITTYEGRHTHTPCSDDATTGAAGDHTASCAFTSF

biological target: OsWRKY34 (Oryza sativa, UniProt Q0JBA9 1-250); assay: protein-binding microarray (RPBM); PBS, 2% BSA, 51.3 ng/ul salmon testes DNA, 50 uM zinc acetate, 200 nM TF, 25 C, 1 h; high values mean tight binding; details: protein: recombinant; tags: N-terminal polyhistidine and DsRed monomer fusion (pET32a); label: CyDye5-dUTP incorporated in the synthesized complementary strand; 3' TTTTT single-stranded linker to array surface; dsDNA, one strand shown
Outline: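 The binding signal is fluorescence intensity per feature, in arbitrary units, read on an Axon 4000B scanner. Polyhistidine- and DsRed-tagged transcription factors (N-terminal fusions) from E. coli BL21-CodonPlus were purified on Ni–NTA and applied at 200 nM for 1 h at 25 °C to a double-stranded, BSA-blocked custom Agilent array in buffer with 50 µM zinc acetate.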

In order of rising binding signal:
1. TACACGGTATTGTATATGTTAGGGCTGAAGATTTCTGGTACGGAGTCACCTAGTGCAG  8060 fluorescence intensity (a.u.)
2. GCTCGTCGTCGCCACCTCACCACCACACACGCGCAGCCAACGGAGTCACCTAGTGCAG  8090 fluorescence intensity (a.u.)
3. AATCGGTTTAACTCAAAATCCCAACTCCGAACGCCTCTTCCGGAGTCACCTAGTGCAG  8100 fluorescence intensity (a.u.)
4. AATCAGTAATCACTGAGTCGTTACTGCTGCTTTCCGGTTGCGGAGTCACCTAGTGCAG  8110 fluorescence intensity (a.u.)
5. ATCTCTCTCTCTCGGCCCGGCCCGTTCTCTCTCTCAGCCTCGGAGTCACCTAGTGCAG  8150 fluorescence intensity (a.u.)
6. GAAGCTAATACACCTTCGCTACATCTCCTTGCTTAGCACCCGGAGTCACCTAGTGCAG  8160 fluorescence intensity (a.u.)
7. GGGAGAGAGAAATAATCCTTAAAATCATTCAAACCTTTTGCGGAGTCACCTAGTGCAG  8190 fluorescence intensity (a.u.)
8. ATCAGGATCATTCAGTCCACCAAGTTTACATGCCTACATCCGGAGTCACCTAGTGCAG  8190 fluorescence intensity (a.u.)
9. AGCCGCCCATTTTATGCAGTCCATTCCAAAGACCGACGAACGGAGTCACCTAGTGCAG  8230 fluorescence intensity (a.u.)
10. CAGCCTAGCAAAAACCCAACTACTGTATACTACAACTGTACGGAGTCACCTAGTGCAG  8230 fluorescence intensity (a.u.)
11. TCTTTCTTTTAATATATTGGCGTATAATTTTTTTTGCGCGCGGAGTCACCTAGTGCAG  8250 fluorescence intensity (a.u.)
12. TTTCATCTCCTAGCTAGCTTGTTGTACTGCATCTGTAATACGGAGTCACCTAGTGCAG  8270 fluorescence intensity (a.u.)
13. CGCGGCATCGTTTGGTGGAGGGGTTGGAGACCGGCTTGGCCGGAGTCACCTAGTGCAG  8310 fluorescence intensity (a.u.)
14. GTTATATTATTGCACCGATAACATTTCTTTATATACCAATCGGAGTCACCTAGTGCAG  8370 fluorescence intensity (a.u.)
15. AAACAACAATACTTCGTCTCACATTTCTCTCTTTCTTTTACGGAGTCACCTAGTGCAG  8430 fluorescence intensity (a.u.)
16. AAAAGCAGCGCACAACATGTTCATCCATCATCACCTCACCCGGAGTCACCTAGTGCAG  8430 fluorescence intensity (a.u.)
17. CTCCATATTCTTACAAGATCTCAGCTTCTCCATATTCATACGGAGTCACCTAGTGCAG  8440 fluorescence intensity (a.u.)
18. GTTTATTGTATCATCCAGGTCCAAAGCCACTTTTGACCGTCGGAGTCACCTAGTGCAG  8460 fluorescence intensity (a.u.)
19. CATCCACATCATCCTTCTCACCGGTGACGGCGTCCTGGAACGGAGTCACCTAGTGCAG  8460 fluorescence intensity (a.u.)
20. AGCTAATCCGTTTTCGGGACCGAGCGCACCCTAATCTCCACGGAGTCACCTAGTGCAG  8490 fluorescence intensity (a.u.)
21. GCAATTACGCACCCAATTGTAGCAAGCCACTCGCAAATTTCGGAGTCACCTAGTGCAG  8510 fluorescence intensity (a.u.)
22. CTTTTATATAGCTTTGTCTAGTCTTGTGAATTCTCAATTGCGGAGTCACCTAGTGCAG  8530 fluorescence intensity (a.u.)
23. ACTTCCTTATTTTACAATACTAAACATGTGTTTTTTTGAACGGAGTCACCTAGTGCAG  8540 fluorescence intensity (a.u.)
24. GCCAGCGTCAAGACTCCGCACCCTCCCCGCAACCTCTGAACGGAGTCACCTAGTGCAG  8570 fluorescence intensity (a.u.)
25. AACTGGTCGCCTGCTGATTTATTTTTGTTTGTCAGCCCTTCGGAGTCACCTAGTGCAG  8580 fluorescence intensity (a.u.)
26. ACAGATACAGCATGCAGCTCCGGTACTTATCAGGCAAATACGGAGTCACCTAGTGCAG  8610 fluorescence intensity (a.u.)
27. ATACATTGCCGAGGATGGGAGTCAGTCTACATGGAACCTCCGGAGTCACCTAGTGCAG  8620 fluorescence intensity (a.u.)
28. GCCGACATCGCCCATCTTTGCACCTCCGTGACAGGCCACCCGGAGTCACCTAGTGCAG  8650 fluorescence intensity (a.u.)
29. CAGTTTAAATGCAGCGTTGGTTTTCAGCGTCCAACTTTTTCGGAGTCACCTAGTGCAG  8670 fluorescence intensity (a.u.)
30. GTCGCTTCTTGCACAGTTGGTACGATGCACGTCATGTTATCGGAGTCACCTAGTGCAG  8680 fluorescence intensity (a.u.)
31. GTTCCTGTACAAATCTCATTTGGTCTCGTTATCTGTTTTACGGAGTCACCTAGTGCAG  8840 fluorescence intensity (a.u.)
32. ATTAGCTATCATCATTTTTGGCTTGTTTTTTCGATTACTTCGGAGTCACCTAGTGCAG  8850 fluorescence intensity (a.u.)
33. TCGTTGGATAATATTTTGTCGCATTGCCTGAGATAATTCCCGGAGTCACCTAGTGCAG  8890 fluorescence intensity (a.u.)
34. CATGTTATTACTACCTCGTTTTACGTGAAACACTTTATCTCGGAGTCACCTAGTGCAG  8890 fluorescence intensity (a.u.)
35. TGAAGTTTGACATTTCATCCTATAAGTTATTTTGTTGCAACGGAGTCACCTAGTGCAG  8930 fluorescence intensity (a.u.)
36. TCCGCCGCCACGCTCCGCCACCTCCGCTCCGACGCTGGACCGGAGTCACCTAGTGCAG  9000 fluorescence intensity (a.u.)
37. CCGGTAACCCTCACAATCCCGTTCGTCGAGATCGTCGCTTCGGAGTCACCTAGTGCAG  9040 fluorescence intensity (a.u.)
38. AACTGGTCTCTACCATTGAACATGCCCTAATACAGTTTTCCGGAGTCACCTAGTGCAG  9060 fluorescence intensity (a.u.)
39. TGGAGCCCCTGCTGTTCTTGTCCATTGTTTTAGCTATATACGGAGTCACCTAGTGCAG  9060 fluorescence intensity (a.u.)
40. TTTCGCATTTCGGTGGACTGCTAATCCCGTAATCCGTGTCCGGAGTCACCTAGTGCAG  9110 fluorescence intensity (a.u.)
41. CCAACCTTCAGACCAGCGCCATAACTGCCTCACATCTCACCGGAGTCACCTAGTGCAG  9180 fluorescence intensity (a.u.)
42. CCCAACAATTCCGTCGCCCTGGACTTATCACGCGCCGTAGCGGAGTCACCTAGTGCAG  9210 fluorescence intensity (a.u.)
43. CTTCTCCCATGCGCCGCCGCAATCTCATCTCTCTGTTTTTCGGAGTCACCTAGTGCAG  9220 fluorescence intensity (a.u.)
44. TACCACACACACCTTGTTATATAGCTAGACACACCTTACCCGGAGTCACCTAGTGCAG  9270 fluorescence intensity (a.u.)
45. CGGGACAGGGAAGGTAGAATCAGCTTTCGTTGACCCGCTCCGGAGTCACCTAGTGCAG  9310 fluorescence intensity (a.u.)
46. TTTAGCGATTTGTTTTATGTTTTGAGTTTAGTGTTGTGATCGGAGTCACCTAGTGCAG  9320 fluorescence intensity (a.u.)
47. ACTTAGCAGCACTTGTCCCGTTCTCCTGAAGACAGTCCAACGGAGTCACCTAGTGCAG  9480 fluorescence intensity (a.u.)
48. GTTATTCCTAACAACTCCACTATTTCTTTGGCTCCTAAGCCGGAGTCACCTAGTGCAG  9590 fluorescence intensity (a.u.)
49. GGCCGGCCGCGGCGGGTGGTGGGGCAGGGCCTGACGACGACGGAGTCACCTAGTGCAG  9650 fluorescence intensity (a.u.)
50. CCGGCGTGTTTGTCCTCTGCACCACTCACCCGCCGGTCAGCGGAGTCACCTAGTGCAG  9680 fluorescence intensity (a.u.)
51. TATGTTGCGTTTTAGTTTTAGTTCCATATATTTTAGCACACGGAGTCACCTAGTGCAG  9740 ± 807 fluorescence intensity (a.u.)
52. CGCCGCCGCCGCCGCCACCTCGCCCTCATCGCTGCGCGCTCGGAGTCACCTAGTGCAG  9770 fluorescence intensity (a.u.)
53. CGCTTCGTTCTTAAGCTCTCCTGGCTTATTTTTTCTTTTCCGGAGTCACCTAGTGCAG  9810 fluorescence intensity (a.u.)
54. TCCAGTCCGTTCACTCCCTTCGCACACGAATCTCAAAGCGCGGAGTCACCTAGTGCAG  9830 fluorescence intensity (a.u.)
55. ATTTTCTGCTGTATTTTGACAACTTTAGTGTCCCATTTATCGGAGTCACCTAGTGCAG  9870 fluorescence intensity (a.u.)
56. CTCTCCATTGCAAGATCTTTTACTCGTACTTGGGCTTATGCGGAGTCACCTAGTGCAG  9950 fluorescence intensity (a.u.)
57. GAAATCTCCCGTTTCTCCCGTTGCCTTGCGCCGCCGCCAACGGAGTCACCTAGTGCAG  9980 fluorescence intensity (a.u.)
58. CCTACTAATACTTACTACCTACTCCCTCCGTTCCATGAAACGGAGTCACCTAGTGCAG  10200 fluorescence intensity (a.u.)
59. CCACATCTTCTTACCCTATTGCCACCATCAAGCCTTGCCTCGGAGTCACCTAGTGCAG  10300 fluorescence intensity (a.u.)
60. GGTTCTCTTCCTCTTGCTCTTGCTCGCCGCCGGCTTGCTCCGGAGTCACCTAGTGCAG  10400 fluorescence intensity (a.u.)
61. ACCTAGCTAACTCACTCACTCACTCCTTCTTCTTGCGACCCGGAGTCACCTAGTGCAG  10400 fluorescence intensity (a.u.)
62. GTCACCACTCACCACTCTGCTAAGGCGCGCGTCAGTCAACCGGAGTCACCTAGTGCAG  10500 fluorescence intensity (a.u.)
63. GTCGTAGTTTATTTCTAGCATTGACCTTTAAAGTTGCTACCGGAGTCACCTAGTGCAG  10600 fluorescence intensity (a.u.)
64. GCTATCATTCCGAATTCGTAGTCCTAACAAATATCCCATTCGGAGTCACCTAGTGCAG  10600 fluorescence intensity (a.u.)
65. TTCTTATTTCGACCTGGTTTAGTTCCCAACTTTTTCTTCACGGAGTCACCTAGTGCAG  10900 fluorescence intensity (a.u.)
66. GACTCTTCTCTTTTCTTTTTATCTTCTTAAAATATATTTACGGAGTCACCTAGTGCAG  11100 fluorescence intensity (a.u.)
67. ATATGTTTTATGTGTCTTTTAATTCTCTATTTTACACTTCCGGAGTCACCTAGTGCAG  11100 fluorescence intensity (a.u.)
68. CACTTGGCAGGTGCTTTGACCGGTCAAATGAGGTGGTTTACGGAGTCACCTAGTGCAG  11200 fluorescence intensity (a.u.)
69. ACTCACATATATGTTCCTGCTGTCCCAGGCCTCTTGCTTACGGAGTCACCTAGTGCAG  11300 fluorescence intensity (a.u.)
70. GCATCTACTTCCCACGTCATCATCTTCATCATTAATATAACGGAGTCACCTAGTGCAG  11500 fluorescence intensity (a.u.)
71. GCTGGGGTTTGATACTACAGGAGATGATCCTGCTCTCATCCGGAGTCACCTAGTGCAG  11500 fluorescence intensity (a.u.)
72. GTTTGTATTGTCTGTTGGAGTCCATAAACGTTTTATCACACGGAGTCACCTAGTGCAG  11800 fluorescence intensity (a.u.)
73. ATCGCTGCCTCGCTCACGCACGCGCGCTCTACCTACCTGACGGAGTCACCTAGTGCAG  12300 fluorescence intensity (a.u.)
74. ATGGTGTTGGAGTGAGGCAAATTTAACTCTTTTTTTTTTTCGGAGTCACCTAGTGCAG  12600 fluorescence intensity (a.u.)
75. TGTTTCCGTATTCGTGTCCGATCATATTCGATTCTTATTCCGGAGTCACCTAGTGCAG  12700 fluorescence intensity (a.u.)
76. TGAGCTTCGCGCGCGCGCCGCGGAACTCGAGGGCGGCGCGCGGAGTCACCTAGTGCAG  13200 fluorescence intensity (a.u.)
77. GCCTTTTTCCGAGTTCCGACTGCTTTTCGGCTTTTTTCCCCGGAGTCACCTAGTGCAG  13800 fluorescence intensity (a.u.)
78. ATTTGGGGTTTGGATACTTGAACTTTATTTTGACTTCTGACGGAGTCACCTAGTGCAG  14000 fluorescence intensity (a.u.)
79. ATCTCCATCTGGCGAGCAGAGGCCGGGGAGGGAGGGGCGCCGGAGTCACCTAGTGCAG  14100 fluorescence intensity (a.u.)
80. ATTTTTTAAGTGTACGTTGTTGTTGACTTTTTTTATTAACCGGAGTCACCTAGTGCAG  14400 fluorescence intensity (a.u.)
81. ATCATTTCGCACATTAACTCTCTCTCTCTCTCTCCATTTTCGGAGTCACCTAGTGCAG  15200 fluorescence intensity (a.u.)
82. TGGTTTGGGCTGGTTTCGATTAGCATTTTTTTTACACGCGCGGAGTCACCTAGTGCAG  16200 fluorescence intensity (a.u.)
83. ATGTTGCCCTTTGTTCTGCTGTTTCCTGGTTATATGGGATCGGAGTCACCTAGTGCAG  17500 fluorescence intensity (a.u.)
84. AATGTTTGACACCGTTGACTTTTTAGTACGTGTTTGTCCACGGAGTCACCTAGTGCAG  30200 fluorescence intensity (a.u.)
